# The list shows a part of the results. The list holds hits alone, and they repeat only in part.
# The chains behind the UniProt entries cited, without tags or fusion partners.
# CAMK2D, Q13557, UniProt Q13557, whole entry: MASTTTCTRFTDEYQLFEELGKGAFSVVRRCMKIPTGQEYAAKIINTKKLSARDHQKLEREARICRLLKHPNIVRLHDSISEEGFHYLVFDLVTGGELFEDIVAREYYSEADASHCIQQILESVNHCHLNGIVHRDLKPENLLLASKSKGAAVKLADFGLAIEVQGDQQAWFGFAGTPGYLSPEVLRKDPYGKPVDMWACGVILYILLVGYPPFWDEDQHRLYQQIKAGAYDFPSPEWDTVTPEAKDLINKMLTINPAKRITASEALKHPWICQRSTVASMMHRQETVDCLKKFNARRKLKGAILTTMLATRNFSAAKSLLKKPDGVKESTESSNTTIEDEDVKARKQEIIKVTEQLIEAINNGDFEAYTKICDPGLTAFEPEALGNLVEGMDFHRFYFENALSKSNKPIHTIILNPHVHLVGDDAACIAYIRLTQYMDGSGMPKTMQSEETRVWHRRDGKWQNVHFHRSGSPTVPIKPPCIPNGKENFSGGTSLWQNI
# MAPK1, P28482, UniProt P28482, whole entry: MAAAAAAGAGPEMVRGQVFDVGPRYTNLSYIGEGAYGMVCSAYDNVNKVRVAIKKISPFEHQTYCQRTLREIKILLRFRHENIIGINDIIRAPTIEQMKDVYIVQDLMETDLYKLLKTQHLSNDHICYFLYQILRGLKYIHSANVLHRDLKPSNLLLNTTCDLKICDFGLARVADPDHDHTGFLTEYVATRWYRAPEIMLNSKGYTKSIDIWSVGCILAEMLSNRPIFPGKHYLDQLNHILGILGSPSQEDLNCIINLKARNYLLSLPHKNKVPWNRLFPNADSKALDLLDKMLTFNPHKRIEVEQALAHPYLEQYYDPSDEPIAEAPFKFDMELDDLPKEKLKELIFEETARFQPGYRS
# PAXIP1, Q6ZW49, UniProt Q6ZW49, whole entry: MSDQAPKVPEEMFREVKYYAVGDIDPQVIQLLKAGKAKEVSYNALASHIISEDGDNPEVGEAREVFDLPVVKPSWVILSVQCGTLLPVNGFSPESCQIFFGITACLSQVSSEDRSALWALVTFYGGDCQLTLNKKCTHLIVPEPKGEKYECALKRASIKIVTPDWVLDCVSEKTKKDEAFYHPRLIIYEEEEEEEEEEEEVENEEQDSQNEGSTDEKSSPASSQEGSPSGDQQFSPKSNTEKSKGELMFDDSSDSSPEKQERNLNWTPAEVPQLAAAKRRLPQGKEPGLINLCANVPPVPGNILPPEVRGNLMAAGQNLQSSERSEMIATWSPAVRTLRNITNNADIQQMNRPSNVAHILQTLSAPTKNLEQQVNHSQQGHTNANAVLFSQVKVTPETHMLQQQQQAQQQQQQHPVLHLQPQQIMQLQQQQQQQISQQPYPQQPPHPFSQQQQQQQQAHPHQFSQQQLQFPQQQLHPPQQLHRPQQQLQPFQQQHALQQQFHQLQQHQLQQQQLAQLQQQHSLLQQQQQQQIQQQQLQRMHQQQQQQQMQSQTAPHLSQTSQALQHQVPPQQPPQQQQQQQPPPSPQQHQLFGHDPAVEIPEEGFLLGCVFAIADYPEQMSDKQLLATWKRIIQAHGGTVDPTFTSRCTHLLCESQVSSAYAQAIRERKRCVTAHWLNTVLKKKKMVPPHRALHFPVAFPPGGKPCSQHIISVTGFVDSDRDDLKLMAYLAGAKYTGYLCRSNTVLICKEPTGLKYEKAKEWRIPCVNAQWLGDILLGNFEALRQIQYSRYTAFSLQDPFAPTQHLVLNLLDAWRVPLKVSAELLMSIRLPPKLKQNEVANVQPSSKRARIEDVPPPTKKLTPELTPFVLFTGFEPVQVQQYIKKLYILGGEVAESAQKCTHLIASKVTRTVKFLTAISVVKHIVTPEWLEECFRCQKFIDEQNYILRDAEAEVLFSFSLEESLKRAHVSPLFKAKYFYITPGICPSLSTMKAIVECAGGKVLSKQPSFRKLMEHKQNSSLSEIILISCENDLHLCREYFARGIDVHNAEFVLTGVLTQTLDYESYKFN
# SDC2, P34741, UniProt P34741, whole entry: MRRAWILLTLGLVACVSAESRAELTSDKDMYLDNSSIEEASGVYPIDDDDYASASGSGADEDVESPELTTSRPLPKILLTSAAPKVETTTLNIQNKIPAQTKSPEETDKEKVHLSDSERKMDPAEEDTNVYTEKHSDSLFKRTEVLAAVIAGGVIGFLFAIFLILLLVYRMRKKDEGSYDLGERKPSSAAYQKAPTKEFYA
# EIF3K, Q9UBQ5, UniProt Q9UBQ5, whole entry: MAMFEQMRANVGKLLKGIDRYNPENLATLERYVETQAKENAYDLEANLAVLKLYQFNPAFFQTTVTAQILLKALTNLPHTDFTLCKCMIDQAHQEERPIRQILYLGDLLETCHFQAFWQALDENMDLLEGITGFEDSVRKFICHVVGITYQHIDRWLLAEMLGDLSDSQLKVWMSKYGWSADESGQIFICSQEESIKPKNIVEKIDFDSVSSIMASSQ
# ELOC, Q15369, UniProt Q15369, whole entry: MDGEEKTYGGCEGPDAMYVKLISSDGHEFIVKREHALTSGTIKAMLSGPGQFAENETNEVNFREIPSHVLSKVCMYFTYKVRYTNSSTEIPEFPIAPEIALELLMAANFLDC
# C3, P01024, UniProt P01024, whole entry: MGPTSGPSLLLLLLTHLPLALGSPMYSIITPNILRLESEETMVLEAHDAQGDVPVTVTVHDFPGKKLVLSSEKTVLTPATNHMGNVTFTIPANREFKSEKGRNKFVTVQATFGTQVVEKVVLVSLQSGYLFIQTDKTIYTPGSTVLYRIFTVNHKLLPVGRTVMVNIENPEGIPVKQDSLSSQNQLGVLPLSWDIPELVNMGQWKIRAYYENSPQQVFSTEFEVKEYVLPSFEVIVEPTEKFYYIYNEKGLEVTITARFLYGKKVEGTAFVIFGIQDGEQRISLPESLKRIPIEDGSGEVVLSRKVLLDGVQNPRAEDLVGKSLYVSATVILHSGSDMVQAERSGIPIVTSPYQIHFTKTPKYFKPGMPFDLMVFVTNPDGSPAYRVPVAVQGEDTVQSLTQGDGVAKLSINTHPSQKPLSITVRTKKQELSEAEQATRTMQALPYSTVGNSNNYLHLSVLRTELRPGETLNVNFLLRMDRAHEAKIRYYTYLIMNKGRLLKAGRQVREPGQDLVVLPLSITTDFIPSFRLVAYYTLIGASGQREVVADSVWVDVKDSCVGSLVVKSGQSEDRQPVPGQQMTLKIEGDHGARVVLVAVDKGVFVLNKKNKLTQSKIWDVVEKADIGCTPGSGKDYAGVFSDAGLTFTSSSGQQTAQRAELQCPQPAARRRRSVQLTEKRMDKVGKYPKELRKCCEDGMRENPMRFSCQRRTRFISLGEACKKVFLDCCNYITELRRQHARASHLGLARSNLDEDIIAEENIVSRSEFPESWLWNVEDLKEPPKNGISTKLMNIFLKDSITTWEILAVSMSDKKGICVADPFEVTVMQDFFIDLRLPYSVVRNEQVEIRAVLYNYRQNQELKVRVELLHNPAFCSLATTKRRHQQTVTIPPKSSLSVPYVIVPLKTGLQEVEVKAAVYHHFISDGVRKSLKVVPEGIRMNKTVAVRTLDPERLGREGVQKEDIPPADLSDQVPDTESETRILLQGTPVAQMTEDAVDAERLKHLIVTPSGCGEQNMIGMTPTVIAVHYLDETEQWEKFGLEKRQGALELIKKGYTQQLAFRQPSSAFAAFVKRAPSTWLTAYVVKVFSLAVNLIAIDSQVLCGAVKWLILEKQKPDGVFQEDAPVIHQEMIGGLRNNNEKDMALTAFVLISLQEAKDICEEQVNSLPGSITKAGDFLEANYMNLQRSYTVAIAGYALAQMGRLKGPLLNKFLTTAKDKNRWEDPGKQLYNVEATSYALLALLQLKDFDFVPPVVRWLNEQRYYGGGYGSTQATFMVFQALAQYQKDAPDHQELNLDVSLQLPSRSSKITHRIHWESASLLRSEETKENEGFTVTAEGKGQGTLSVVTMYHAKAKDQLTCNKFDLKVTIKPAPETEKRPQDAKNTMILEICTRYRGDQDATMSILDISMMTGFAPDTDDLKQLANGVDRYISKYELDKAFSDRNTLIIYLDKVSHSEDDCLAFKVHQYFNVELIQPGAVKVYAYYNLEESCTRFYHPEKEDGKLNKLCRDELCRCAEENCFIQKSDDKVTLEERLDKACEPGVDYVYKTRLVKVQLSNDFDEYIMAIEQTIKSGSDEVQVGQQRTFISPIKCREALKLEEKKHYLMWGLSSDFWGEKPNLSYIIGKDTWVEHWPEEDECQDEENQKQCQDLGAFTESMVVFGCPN
# B1: PSMB8-AS1 (peptide)
# chain: PLPDSASFQKEDVVS
# B2: GLUT1_WT_2 (peptide)
# chain: TPEELFHPLGADSQ
# B3: TBX5-AS1 (peptide)
# chain: LWFLSPASRTAGPAA
# Tests used:
# Assay in all cases: PRISMA enrichment of interactor (LFQ) in peptide spot vs all other peptide spots (log2 fold change); higher = stronger / more specific binding of the interactor to the peptide
# ARCN1, P48444 = molecular target: ARCN1, P48444
# Method: (§1)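 PRISMA: 15-aa overlapping tiles (offset 8 aa) of 60 microproteins, plus SOS1/GLUT1 control peptides, were spot-synthesized on cellulose membranes in triplicate. Membranes were incubated with benzonase-treated HEK293T lysate, and bound proteins were identified by LC-MS/MS with LFQ. Enrichment is the log2 fold change of each protein in one spot versus all other spots. Only interactors passing the significance cutoff are listed.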
# ATXN7L3B, Q96GX2 = molecular target: ATXN7L3B, Q96GX2
# Method: as §1
# AURKAIP1, Q9NWT8 = molecular target: AURKAIP1, Q9NWT8
# Method: as §1
# BCAP31, P51572 = molecular target: BCAP31, P51572
# Method: as §1
# CAMK2D, Q13557 = molecular target: CAMK2D, Q13557
# Method: as §1
# CKMT1A, P12532 = molecular target: CKMT1A, P12532
# Method: as §1
# EFTUD2, Q15029 = molecular target: EFTUD2, Q15029
# Method: as §1
# HP, P00738 = molecular target: HP, P00738
# Method: as §1
# LSM14A, Q8ND56 = molecular target: LSM14A, Q8ND56
# Method: as §1
# MAPK1, P28482 = molecular target: MAPK1, P28482
# Method: as §1
# METAP1, P53582 = molecular target: METAP1, P53582
# Method: as §1
# MRPL40, Q9NQ50 = molecular target: MRPL40, Q9NQ50
# Method: as §1
# NKRF, O15226 = molecular target: NKRF, O15226
# Method: as §1
# PAXIP1, Q6ZW49 = molecular target: PAXIP1, Q6ZW49
# Method: as §1
# POLR2D, O15514 = molecular target: POLR2D, O15514
# Method: as §1
# [1] = substrate: PPIF, P30405
# Method: as §1
# RAB21, Q9UL25 = molecular target: RAB21, Q9UL25
# Method: as §1
# RBM27, Q9P2N5 = molecular target: RBM27, Q9P2N5
# Method: as §1
# RIF1, Q5UIP0 = molecular target: RIF1, Q5UIP0
# Method: as §1
# RMDN3, Q96TC7 = molecular target: RMDN3, Q96TC7
# Method: as §1
# SDC2, P34741 = molecular target: SDC2, P34741
# Method: as §1
# THOC3, Q96J01 = molecular target: THOC3, Q96J01
# Method: as §1
# WDR5, P61964 = molecular target: WDR5, P61964
# Method: as §1
# ARF1, P84077 = molecular target: ARF1, P84077
# Method: as §1
# CHMP1A, Q9HD42 = molecular target: CHMP1A, Q9HD42
# Method: as §1
# DHCR24, Q15392 = molecular target: DHCR24, Q15392
# Method: as §1
# EIF3K, Q9UBQ5 = molecular target: EIF3K, Q9UBQ5
# Method: as §1
# ELOC, Q15369 = molecular target: ELOC, Q15369
# Method: as §1
# FAM91A1, Q658Y4 = molecular target: FAM91A1, Q658Y4
# Method: as §1
# FAM98B, Q52LJ0 = molecular target: FAM98B, Q52LJ0
# Method: as §1
# GTF2H5, Q6ZYL4 = molecular target: GTF2H5, Q6ZYL4
# Method: as §1
# NOL12, Q9UGY1 = molecular target: NOL12, Q9UGY1
# Method: as §1
# PDCD11, Q14690 = molecular target: PDCD11, Q14690
# Method: as §1
# PGRMC1, O00264 = molecular target: PGRMC1, O00264
# Method: as §1
# ARF6, P62330 = molecular target: ARF6, P62330
# Method: as §1
# C3, P01024 = molecular target: C3, P01024
# Method: as §1
# CERS2, Q96G23 = molecular target: CERS2, Q96G23
# Method: as §1
# CNIH4, Q9P003 = molecular target: CNIH4, Q9P003
# Method: as §1
# DCAF1, Q9Y4B6 = molecular target: DCAF1, Q9Y4B6
# Method: as §1
# GTF2E1, P29083 = molecular target: GTF2E1, P29083
# Method: as §1
# ITCH, Q96J02 = molecular target: ITCH, Q96J02
# Method: as §1
# MT-ATP6, P00846 = molecular target: MT-ATP6, P00846
# Method: as §1
# OSTC, Q9NRP0 = molecular target: OSTC, Q9NRP0
# Method: as §1
# PDCD4, Q53EL6 = molecular target: PDCD4, Q53EL6
# Method: as §1
# PSAT1, Q9Y617 = molecular target: PSAT1, Q9Y617
# Method: as §1
# RER1, O15258 = molecular target: RER1, O15258
# Method: as §1
# SHROOM3, Q8TF72 = molecular target: SHROOM3, Q8TF72
# Method: as §1
# SSR3, Q9UNL2 = molecular target: SSR3, Q9UNL2
# Method: as §1
# SURF4, O15260 = molecular target: SURF4, O15260
# Method: as §1
# XPO4, Q9C0E2 = molecular target: XPO4, Q9C0E2
# Method: as §1
binder,measurement,setting,value
B1,PRISMA enrichment of interactor (log2),"ARCN1, P48444",4.87
same,PRISMA enrichment of interactor (log2),"ATXN7L3B, Q96GX2",5.52
same,PRISMA enrichment of interactor (log2),"AURKAIP1, Q9NWT8",4.62
same,PRISMA enrichment of interactor (log2),"BCAP31, P51572",4.47
same,PRISMA enrichment of interactor (log2),"CAMK2D, Q13557",8.05
same,PRISMA enrichment of interactor (log2),"CKMT1A, P12532",3.98
same,PRISMA enrichment of interactor (log2),"EFTUD2, Q15029",4.59
same,PRISMA enrichment of interactor (log2),"HP, P00738",5.3
same,PRISMA enrichment of interactor (log2),"LSM14A, Q8ND56",4.35
same,PRISMA enrichment of interactor (log2),"MAPK1, P28482",6.77
same,PRISMA enrichment of interactor (log2),"METAP1, P53582",4.55
same,PRISMA enrichment of interactor (log2),"MRPL40, Q9NQ50",4.8
same,PRISMA enrichment of interactor (log2),"NKRF, O15226",6.89
same,PRISMA enrichment of interactor (log2),"PAXIP1, Q6ZW49",8.45
same,PRISMA enrichment of interactor (log2),"POLR2D, O15514",5.71
same,PRISMA enrichment of interactor (log2),[1],6.15
same,PRISMA enrichment of interactor (log2),"RAB21, Q9UL25",3.99
same,PRISMA enrichment of interactor (log2),"RBM27, Q9P2N5",4.36
same,PRISMA enrichment of interactor (log2),"RIF1, Q5UIP0",6.93
same,PRISMA enrichment of interactor (log2),"RMDN3, Q96TC7",7.79
same,PRISMA enrichment of interactor (log2),"SDC2, P34741",4.81
same,PRISMA enrichment of interactor (log2),"THOC3, Q96J01",5.2
same,PRISMA enrichment of interactor (log2),"WDR5, P61964",5.2
B2,PRISMA enrichment of interactor (log2),"ARF1, P84077",5.15
same,PRISMA enrichment of interactor (log2),"CHMP1A, Q9HD42",5.47
same,PRISMA enrichment of interactor (log2),"DHCR24, Q15392",5.44
same,PRISMA enrichment of interactor (log2),"EIF3K, Q9UBQ5",4.93
same,PRISMA enrichment of interactor (log2),"ELOC, Q15369",4
same,PRISMA enrichment of interactor (log2),"FAM91A1, Q658Y4",4.88
same,PRISMA enrichment of interactor (log2),"FAM98B, Q52LJ0",8.26
same,PRISMA enrichment of interactor (log2),"GTF2H5, Q6ZYL4",4.03
same,PRISMA enrichment of interactor (log2),"NOL12, Q9UGY1",4.91
same,PRISMA enrichment of interactor (log2),"PDCD11, Q14690",6.57
same,PRISMA enrichment of interactor (log2),"PGRMC1, O00264",5.68
B3,PRISMA enrichment of interactor (log2),"ARF6, P62330",3.78
same,PRISMA enrichment of interactor (log2),"C3, P01024",6.97
same,PRISMA enrichment of interactor (log2),"CERS2, Q96G23",3.97
same,PRISMA enrichment of interactor (log2),"CNIH4, Q9P003",3.8
same,PRISMA enrichment of interactor (log2),"DCAF1, Q9Y4B6",12.4
same,PRISMA enrichment of interactor (log2),"GTF2E1, P29083",3.92
same,PRISMA enrichment of interactor (log2),"ITCH, Q96J02",4.19
same,PRISMA enrichment of interactor (log2),"MT-ATP6, P00846",4.57
same,PRISMA enrichment of interactor (log2),"OSTC, Q9NRP0",4.56
same,PRISMA enrichment of interactor (log2),"PDCD4, Q53EL6",5.67
same,PRISMA enrichment of interactor (log2),"PSAT1, Q9Y617",4.79
same,PRISMA enrichment of interactor (log2),"RER1, O15258",5.4
same,PRISMA enrichment of interactor (log2),"SHROOM3, Q8TF72",9.86
same,PRISMA enrichment of interactor (log2),"SSR3, Q9UNL2",4.61
same,PRISMA enrichment of interactor (log2),"SURF4, O15260",4.55
same,PRISMA enrichment of interactor (log2),"XPO4, Q9C0E2",4.46

# Shown as tab-separated lines: entries from further up.
binder	measurement	setting	value
B3	PRISMA enrichment of interactor (log2)	RER1, O15258	5.4
same	PRISMA enrichment of interactor (log2)	SHROOM3, Q8TF72	9.86

# Reference: the supplement of paper PMC10032668
